Source: patent US20260224701A1

Target: Cynomolgus 4Ig-B7-H3 extracellular domain (cynomolgus)
Experiment: biolayer interferometry (Octet), antibody captured on the probe

binding: binds
B1: MIL33B-H3-hIgG1 (antibody, V domains shown)
VH: QVQLVQSGAEVKKPGASVKVSCKASGYTFTSYVMHWVRQAPGQRLEWMGYINSYSDGTKYNEKFKGRVTITRDTSASTAYMELSSLRSEDTAVYYCARWGGLGNGAMDYWGQGTLVTVSS
VL: EIVLTQSPATLSLSPGERATLSCSVSSSVNYMHWYQQKPGQAPRRLIYDTSKLASGIPARFSGSGSGTDYTLTISSLEPEDFAVYYCQQWTSNPLTFGQGTKLEIK

These are yes or no findings as the source states them, for the method shown. Binding calls can cover weak binding; strength is not graded here.
